# Data reported in the supplement of paper PMC10849652.
# Sequences of proteins named here, by UniProt entry; tags and fusion partners are left off. A change or cut given only in a name is not applied to a line headed by its entry.
# UniProt P78317: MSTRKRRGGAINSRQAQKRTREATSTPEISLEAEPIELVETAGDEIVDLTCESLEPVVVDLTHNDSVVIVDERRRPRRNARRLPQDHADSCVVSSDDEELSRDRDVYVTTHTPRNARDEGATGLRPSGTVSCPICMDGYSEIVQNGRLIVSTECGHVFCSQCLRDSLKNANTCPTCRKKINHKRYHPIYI
# UniProt Q92766: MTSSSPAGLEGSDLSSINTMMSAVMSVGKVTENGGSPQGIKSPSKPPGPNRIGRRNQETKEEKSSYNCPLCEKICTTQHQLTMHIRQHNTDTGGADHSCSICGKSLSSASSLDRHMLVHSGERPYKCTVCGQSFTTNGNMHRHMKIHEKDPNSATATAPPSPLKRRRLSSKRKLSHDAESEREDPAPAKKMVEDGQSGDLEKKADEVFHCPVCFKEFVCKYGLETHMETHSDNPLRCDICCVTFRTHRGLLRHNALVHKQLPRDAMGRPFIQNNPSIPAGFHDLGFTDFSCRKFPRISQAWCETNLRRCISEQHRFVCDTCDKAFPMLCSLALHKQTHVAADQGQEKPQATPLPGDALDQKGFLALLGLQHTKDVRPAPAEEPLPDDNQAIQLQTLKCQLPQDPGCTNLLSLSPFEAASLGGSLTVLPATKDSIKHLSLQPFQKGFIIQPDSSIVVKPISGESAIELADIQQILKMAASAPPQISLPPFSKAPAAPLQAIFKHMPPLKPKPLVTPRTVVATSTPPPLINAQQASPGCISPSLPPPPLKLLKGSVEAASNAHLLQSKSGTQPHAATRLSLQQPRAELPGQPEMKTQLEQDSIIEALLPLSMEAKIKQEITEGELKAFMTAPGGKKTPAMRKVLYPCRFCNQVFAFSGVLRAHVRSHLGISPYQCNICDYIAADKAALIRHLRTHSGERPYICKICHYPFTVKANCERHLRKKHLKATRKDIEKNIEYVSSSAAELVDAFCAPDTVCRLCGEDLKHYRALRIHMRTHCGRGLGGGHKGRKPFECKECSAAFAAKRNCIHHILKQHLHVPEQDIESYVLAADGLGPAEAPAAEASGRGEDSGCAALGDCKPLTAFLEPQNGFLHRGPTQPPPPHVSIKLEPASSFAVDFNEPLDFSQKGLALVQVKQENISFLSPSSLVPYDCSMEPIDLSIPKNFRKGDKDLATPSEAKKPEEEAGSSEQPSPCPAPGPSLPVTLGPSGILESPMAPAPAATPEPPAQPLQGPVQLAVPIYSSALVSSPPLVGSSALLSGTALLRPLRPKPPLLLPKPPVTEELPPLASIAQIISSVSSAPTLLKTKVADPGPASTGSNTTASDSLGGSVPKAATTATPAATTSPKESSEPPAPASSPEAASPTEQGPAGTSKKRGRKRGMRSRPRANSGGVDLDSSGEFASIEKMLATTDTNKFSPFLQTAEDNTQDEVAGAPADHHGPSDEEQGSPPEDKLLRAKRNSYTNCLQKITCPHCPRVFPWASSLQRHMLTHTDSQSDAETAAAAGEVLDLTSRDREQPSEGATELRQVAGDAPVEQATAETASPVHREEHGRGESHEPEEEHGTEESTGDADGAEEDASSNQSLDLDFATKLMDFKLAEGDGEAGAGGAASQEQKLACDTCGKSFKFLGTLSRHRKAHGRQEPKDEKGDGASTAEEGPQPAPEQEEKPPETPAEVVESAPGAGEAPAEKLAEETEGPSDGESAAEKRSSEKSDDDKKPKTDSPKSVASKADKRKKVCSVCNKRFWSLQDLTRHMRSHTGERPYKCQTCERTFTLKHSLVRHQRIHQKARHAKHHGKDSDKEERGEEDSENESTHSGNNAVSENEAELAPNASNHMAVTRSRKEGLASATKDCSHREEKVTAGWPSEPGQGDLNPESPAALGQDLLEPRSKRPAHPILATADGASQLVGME
# UniProt O75150, whole entry, looked up: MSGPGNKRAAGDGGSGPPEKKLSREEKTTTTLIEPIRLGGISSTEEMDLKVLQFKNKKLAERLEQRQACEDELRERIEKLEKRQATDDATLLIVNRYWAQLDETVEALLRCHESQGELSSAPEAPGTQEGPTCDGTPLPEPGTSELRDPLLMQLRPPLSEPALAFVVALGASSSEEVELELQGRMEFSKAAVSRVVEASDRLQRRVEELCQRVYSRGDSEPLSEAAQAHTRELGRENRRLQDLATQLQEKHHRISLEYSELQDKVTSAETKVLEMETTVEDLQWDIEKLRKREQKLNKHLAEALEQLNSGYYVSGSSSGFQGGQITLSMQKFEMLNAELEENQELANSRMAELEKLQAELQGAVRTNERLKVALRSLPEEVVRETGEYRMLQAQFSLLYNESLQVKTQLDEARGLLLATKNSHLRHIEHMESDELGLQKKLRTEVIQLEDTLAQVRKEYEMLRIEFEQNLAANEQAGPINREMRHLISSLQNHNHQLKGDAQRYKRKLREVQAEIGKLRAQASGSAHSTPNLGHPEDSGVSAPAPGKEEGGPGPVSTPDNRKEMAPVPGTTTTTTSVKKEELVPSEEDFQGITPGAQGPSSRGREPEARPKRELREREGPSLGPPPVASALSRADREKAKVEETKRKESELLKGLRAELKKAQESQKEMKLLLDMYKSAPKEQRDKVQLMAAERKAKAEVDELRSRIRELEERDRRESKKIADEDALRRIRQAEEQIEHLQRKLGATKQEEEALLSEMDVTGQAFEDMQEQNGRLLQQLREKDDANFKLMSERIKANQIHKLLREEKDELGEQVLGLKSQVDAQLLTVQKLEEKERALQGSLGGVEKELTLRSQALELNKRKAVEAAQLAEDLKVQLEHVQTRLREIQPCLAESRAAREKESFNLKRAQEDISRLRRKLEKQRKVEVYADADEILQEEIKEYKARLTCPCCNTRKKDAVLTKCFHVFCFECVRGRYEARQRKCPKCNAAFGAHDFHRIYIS
# UniProt Q5VZM2, whole entry, looked up: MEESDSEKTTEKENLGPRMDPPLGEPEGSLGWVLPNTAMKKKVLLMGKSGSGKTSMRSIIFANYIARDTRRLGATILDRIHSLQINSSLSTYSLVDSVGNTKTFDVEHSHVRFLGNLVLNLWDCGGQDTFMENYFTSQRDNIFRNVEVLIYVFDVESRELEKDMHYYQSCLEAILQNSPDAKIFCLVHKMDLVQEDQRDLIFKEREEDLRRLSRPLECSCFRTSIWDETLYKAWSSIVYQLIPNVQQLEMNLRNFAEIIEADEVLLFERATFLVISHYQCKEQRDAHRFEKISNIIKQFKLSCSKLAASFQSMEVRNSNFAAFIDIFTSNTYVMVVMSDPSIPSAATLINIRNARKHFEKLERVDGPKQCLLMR
# UniProt O75116: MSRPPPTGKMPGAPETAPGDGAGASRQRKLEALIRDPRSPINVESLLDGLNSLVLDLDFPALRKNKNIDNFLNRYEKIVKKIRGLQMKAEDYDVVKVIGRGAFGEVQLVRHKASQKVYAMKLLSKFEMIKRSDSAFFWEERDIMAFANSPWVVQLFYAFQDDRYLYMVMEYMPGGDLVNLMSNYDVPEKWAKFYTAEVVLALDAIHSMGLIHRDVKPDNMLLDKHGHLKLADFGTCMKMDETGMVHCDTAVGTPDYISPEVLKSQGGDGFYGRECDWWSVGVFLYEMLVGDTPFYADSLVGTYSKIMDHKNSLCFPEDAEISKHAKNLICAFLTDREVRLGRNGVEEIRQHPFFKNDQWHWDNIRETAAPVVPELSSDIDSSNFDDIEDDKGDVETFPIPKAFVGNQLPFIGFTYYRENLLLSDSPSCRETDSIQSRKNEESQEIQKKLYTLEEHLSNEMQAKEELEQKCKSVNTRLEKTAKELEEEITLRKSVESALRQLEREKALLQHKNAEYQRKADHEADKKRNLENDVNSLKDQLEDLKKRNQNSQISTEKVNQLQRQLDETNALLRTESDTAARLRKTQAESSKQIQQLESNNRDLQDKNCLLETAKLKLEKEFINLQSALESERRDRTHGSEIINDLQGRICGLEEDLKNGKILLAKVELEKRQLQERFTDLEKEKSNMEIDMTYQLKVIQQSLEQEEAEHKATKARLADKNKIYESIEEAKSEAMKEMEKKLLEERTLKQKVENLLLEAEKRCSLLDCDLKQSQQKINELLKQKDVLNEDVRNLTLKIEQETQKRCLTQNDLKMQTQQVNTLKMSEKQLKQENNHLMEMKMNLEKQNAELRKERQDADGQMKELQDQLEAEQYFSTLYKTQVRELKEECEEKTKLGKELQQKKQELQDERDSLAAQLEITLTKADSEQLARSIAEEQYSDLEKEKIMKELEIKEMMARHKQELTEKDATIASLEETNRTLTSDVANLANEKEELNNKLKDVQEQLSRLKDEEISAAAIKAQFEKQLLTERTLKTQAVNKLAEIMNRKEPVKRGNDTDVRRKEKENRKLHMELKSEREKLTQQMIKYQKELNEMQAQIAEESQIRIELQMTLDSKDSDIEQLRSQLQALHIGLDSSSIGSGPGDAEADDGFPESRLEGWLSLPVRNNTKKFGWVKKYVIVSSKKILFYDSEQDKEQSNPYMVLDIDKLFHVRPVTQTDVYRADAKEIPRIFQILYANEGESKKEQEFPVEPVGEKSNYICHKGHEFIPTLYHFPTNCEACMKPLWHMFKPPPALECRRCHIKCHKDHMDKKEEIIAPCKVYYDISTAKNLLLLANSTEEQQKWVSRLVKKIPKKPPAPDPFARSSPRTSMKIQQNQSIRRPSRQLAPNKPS
# UniProt Q6P087: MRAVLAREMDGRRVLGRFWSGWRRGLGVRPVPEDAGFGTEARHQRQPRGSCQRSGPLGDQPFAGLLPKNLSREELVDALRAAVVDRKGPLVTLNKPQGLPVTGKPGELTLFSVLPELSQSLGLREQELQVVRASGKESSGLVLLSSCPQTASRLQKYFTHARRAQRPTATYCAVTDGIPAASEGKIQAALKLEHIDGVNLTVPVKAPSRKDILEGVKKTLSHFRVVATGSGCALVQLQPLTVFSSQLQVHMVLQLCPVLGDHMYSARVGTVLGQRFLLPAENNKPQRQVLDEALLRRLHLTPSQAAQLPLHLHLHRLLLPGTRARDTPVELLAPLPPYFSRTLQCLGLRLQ
# UniProt Q9GZN7, whole entry, looked up: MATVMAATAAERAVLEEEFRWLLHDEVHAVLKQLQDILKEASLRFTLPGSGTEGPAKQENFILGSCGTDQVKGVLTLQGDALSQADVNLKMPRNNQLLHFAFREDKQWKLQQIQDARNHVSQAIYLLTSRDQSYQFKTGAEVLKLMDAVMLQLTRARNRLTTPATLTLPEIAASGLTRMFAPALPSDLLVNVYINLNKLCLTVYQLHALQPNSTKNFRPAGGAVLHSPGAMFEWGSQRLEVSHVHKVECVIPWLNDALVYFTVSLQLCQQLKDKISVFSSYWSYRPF
# UniProt Q9NYV6: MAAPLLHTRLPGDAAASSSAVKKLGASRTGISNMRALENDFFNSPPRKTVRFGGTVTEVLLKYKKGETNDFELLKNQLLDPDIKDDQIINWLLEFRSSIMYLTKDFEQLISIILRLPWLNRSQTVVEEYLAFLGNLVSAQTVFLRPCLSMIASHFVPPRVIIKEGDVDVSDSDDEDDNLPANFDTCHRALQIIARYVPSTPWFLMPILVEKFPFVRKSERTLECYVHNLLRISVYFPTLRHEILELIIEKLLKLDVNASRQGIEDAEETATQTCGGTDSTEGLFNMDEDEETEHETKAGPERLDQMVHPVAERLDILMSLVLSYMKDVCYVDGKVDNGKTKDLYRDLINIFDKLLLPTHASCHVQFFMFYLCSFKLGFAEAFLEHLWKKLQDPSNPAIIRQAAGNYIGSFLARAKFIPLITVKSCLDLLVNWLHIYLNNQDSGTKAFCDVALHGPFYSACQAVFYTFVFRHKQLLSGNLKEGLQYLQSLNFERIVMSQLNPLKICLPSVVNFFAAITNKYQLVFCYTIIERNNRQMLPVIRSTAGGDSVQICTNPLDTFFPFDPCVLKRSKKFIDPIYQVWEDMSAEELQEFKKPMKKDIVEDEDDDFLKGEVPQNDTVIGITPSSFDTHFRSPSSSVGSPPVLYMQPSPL
# UniProt Q8IXW5, whole entry, looked up: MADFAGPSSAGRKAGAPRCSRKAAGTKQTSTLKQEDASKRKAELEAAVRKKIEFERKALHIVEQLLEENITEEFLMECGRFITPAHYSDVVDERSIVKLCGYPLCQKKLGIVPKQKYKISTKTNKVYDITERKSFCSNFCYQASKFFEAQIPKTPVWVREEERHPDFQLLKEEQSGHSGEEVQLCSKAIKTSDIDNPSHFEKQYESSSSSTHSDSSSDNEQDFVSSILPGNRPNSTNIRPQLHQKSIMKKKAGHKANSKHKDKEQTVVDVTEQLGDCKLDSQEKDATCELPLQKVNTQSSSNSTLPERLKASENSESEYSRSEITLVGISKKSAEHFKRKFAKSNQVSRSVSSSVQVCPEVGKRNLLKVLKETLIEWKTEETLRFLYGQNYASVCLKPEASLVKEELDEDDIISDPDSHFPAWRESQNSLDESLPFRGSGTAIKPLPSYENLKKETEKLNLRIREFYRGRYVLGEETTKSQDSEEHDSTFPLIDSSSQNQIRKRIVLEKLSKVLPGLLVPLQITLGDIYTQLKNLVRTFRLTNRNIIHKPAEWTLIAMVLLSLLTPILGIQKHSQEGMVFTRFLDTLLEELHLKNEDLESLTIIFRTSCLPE
# The other results are listed elsewhere or left out.
# Compound: CN(CCOC1=CC=C(C=C1)C[C@H]2C(=O)NC(=O)S2)C3=CC=CC=N3 (racemic) [rosiglitazone]
# Experiment: log2 fold change, soluble protein after heating vs DMSO (PISA); higher = thermal stabilisation; K562 cells, 10 uM, 30 min; active = over 0.2 and 3.5 SD of the protein, either way, in both replicates (recomputed)
# In short: (§1)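 K562 cells (2×10^6 cells/mL) were treated with 10 μM compound for 30 min, and aliquots were heated for 3 min over 48°C-58°C. Pooled aliquots were extracted in PBS with 0.5% NP-40 at 4°C, and the supernatant after 21,000xg for 90 min was measured by TMTpro 16plex LC-MS/MS with channel sums equalised. Reported thermal stability, relative to control samples and from duplicates, is a log2 fold change.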
row,Target,log2 fold change
1,RPL7L1 (UniProt Q6DKI1),inactive: -0.167
2,RNF4 (UniProt P78317),inactive: 0.001
3,"RPS7, A0A2R8Y623",inactive: 0.111
4,ROS1 (UniProt P08922),inactive: 0.384
5,RREB1 isoform 2 (UniProt Q92766),inactive: -0.092
6,RPL37 (UniProt P61927),inactive: -0.209
7,RPP30 (UniProt Q5VU11),inactive: 0.016
8,RPRD2 (UniProt Q5VT52),inactive: 0.261
9,RNF40 (UniProt O75150),inactive: 0.392

# Compound: CN1C2=C(C3=C1C(=O)N(N=C3)CC4=CC(=CC=C4)N)SC(=C2)S(=O)C
# Experiment: as above
# In short: as §1
row,Target,log2 fold change
1,RPL7L1 (UniProt Q6DKI1),inactive: 0.214
2,RPS3 (UniProt E9PJN9),inactive: 0.088
3,RPS3A (UniProt D6R9B6),inactive: 0.247
4,RPAIN isoform 8 (UniProt Q86UA6),inactive: -0.044
5,ROMO1 (UniProt P60602),inactive: 0.125
6,RPS6KA3 (UniProt P51812),inactive: -0.043
7,RPRD1B (UniProt Q9NQG5),inactive: -0.059
8,RPS25 (UniProt P62851),inactive: 0.122
9,RPRD1A (UniProt Q96P16),inactive: 0.058
10,RPS5 (UniProt P46782),inactive: 0.089
11,RPS3A (UniProt P61247),inactive: 0.138
12,RREB1 isoform 2 (UniProt Q92766),inactive: 0.095
13,RPS20 isoform 2 (UniProt P60866),inactive: 0.091
14,RPS14 (UniProt P62263),inactive: 0.095
15,RNPS1 (UniProt Q15287),inactive: 0.016
16,RPL37 (UniProt P61927),inactive: 0.354
17,RPP30 (UniProt Q5VU11),inactive: 0.041
18,RRAGB (UniProt Q5VZM2),inactive: -0.022
19,RNF40 (UniProt O75150),inactive: 0.046
20,ROCK2 (UniProt O75116),inactive: -0.02

# Compound: CN1CCC(CNc2ccc3ncc(-c4cccc(OC(F)(F)F)c4)n3n2)CC1
# Experiment: as above
# In short: as §1
row,Target,log2 fold change
1,RNF26 (UniProt Q9BY78),active: -1.04
2,RPL7L1 (UniProt Q6DKI1),inactive: 0.276
3,RPS3 (UniProt E9PJN9),inactive: 0.089
4,ROMO1 (UniProt P60602),inactive: 0.049
5,RPS6KA3 (UniProt P51812),inactive: -0.192
6,RPRD1B (UniProt Q9NQG5),inactive: -0.077
7,RPS25 (UniProt P62851),inactive: 0.146
8,RPRD1A (UniProt Q96P16),inactive: -0.025
9,RPS5 (UniProt P46782),inactive: 0.044
10,RNF31 (UniProt Q96EP0),inactive: 0.161
11,RPUSD3 (UniProt Q6P087),inactive: -0.241
12,ROS1 (UniProt P08922),inactive: -0.207
13,RPS3A (UniProt P61247),inactive: 0.105
14,ROGDI (UniProt Q9GZN7),inactive: -0.286
15,RRN3 (UniProt Q9NYV6),inactive: 0.461
16,RPUSD4 (UniProt Q96CM3),inactive: 0.07
17,RREB1 isoform 2 (UniProt Q92766),inactive: 0.073
18,RPS20 isoform 2 (UniProt P60866),inactive: 0.063
19,RPF2 (UniProt Q9H7B2),inactive: 0.104
20,RPS14 (UniProt P62263),inactive: 0.158
21,RNPS1 (UniProt Q15287),inactive: 0.006
22,RPL37 (UniProt P61927),inactive: 0.253
23,RPP30 (UniProt Q5VU11),inactive: -0.207
24,RPAP2 (UniProt Q8IXW5),inactive: -0.029
25,RNFT1 (UniProt Q5M7Z0),inactive: 0.068
26,RRAGB (UniProt Q5VZM2),inactive: -0.191
27,ROCK2 (UniProt O75116),inactive: -0.042
28,RRP1 (UniProt P56182),inactive: 0.218
